Source: PubChem BioAssay AID493014 (National Center for Advancing Translational Sciences (NCATS), 2011)
Out of some 340,000 compounds screened, about 170 (0.05%) were called active. The shares of active, inactive and inconclusive entries below differ from those in the screen. Calls follow the shape of the dose curve; as a rule, active = well fitted inhibition curve with a large enough effect in the signal ratio, with a control signal flat (not every such curve was filed as active); inconclusive = small, poorly fitted or top-dose-only effect, or effect the other way, or a change in a side signal; inactive = flat fitted curve, though single readings scatter; the % refers to the signal ratio. Where the call is inconclusive, the potency comes from a doubtful curve fit.

Test: qHTS Assay to Find Inhibitors of Chronic Active B-Cell Receptor Signaling;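 as to activity change, negative = inhibition: plate controls were basal doxycycline-induced cells for no effect and cells given 10 µM MG132 for full effect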
Conditions: ABC-DLBCL IkBa-CBG/CBR reporter, luminescence ratio (green luciferase fused to IkBa over red control in TMD8 lymphoma cells), 4 h; activity change, negative = inhibition: at 46.1 µM (top of the series)
Summary of the method: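 Concentration-response series (up to 46 uM) were applied to TMD8 dual-reporter cells for 4 h at 37C with doxycycline. Green/red ratio, after filter-overlap correction, defined %Activity; red signal alone was normalised to basal cells and zero luminescence.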
Potency is read from the fitted curve at half-maximal effect.

Row | Structure (SMILES) | activity change, negative = inhibition | Potency
1 | CNC(=O)c1cccn(Cc2ccc(C(F)(F)F)cc2)c1=O | inconclusive: -13.6% | 
2 | BrCC1C[n+]2c(SCc3ccccc3)nc3sc4c(c3c2O1)CCCC4 (stereo unspecified) | inconclusive: 15.7% | 
3 | Cc1cccc(N=Nc2c(O)[nH]c3ccc(F)cc23)c1 |  | inconclusive: 8.91 µM [falling, partial curve]
4 | CCCCc1ccc(C(=O)O)nc1 | inactive | 
5 | Cc1cc(C=C(C#N)C#N)ccc1N1CCCC1 | inactive | 
6 | O=C1NC(=O)N(c2cccc(F)c2)C(=O)/C1=C/c1ccc(N2CCOCC2)cc1 | inconclusive: -16.9% | 
7 | COC(=O)C1=C(c2ccc(OC(F)(F)F)cc2)C[C@@H]2CC[C@H]1N2C(=O)NCCOc1ccccc1 | inconclusive: -3.55% | 
8 | CCCC(CCC)C(=O)OC[N+](C)(C)CCOC(=O)C(O)(c1ccccc1)C1CCCC1 (stereo unspecified) | inconclusive: -18.7% | 
9 | CCOC(=O)c1c(NC(=O)C(c2ccccc2)c2ccccc2)sc2c1C1CCN2CC1 |  | inconclusive: 3.98 µM [rising, full curve, poor fit]
10 | CN(Cc1ccccc1)C1CCCN(C(=O)COc2ccccc2Cl)C1 (stereo unspecified) |  | inconclusive: 15.8 µM [falling, partial curve, poor fit]
11 | O=[N+]([O-])c1ccc(Cl)c(Cl)c1Cl | inconclusive: 2.8% | 
12 | CN(CC(=O)Nc1ccc(F)cc1)C(=O)Cn1c(=O)oc2ccccc21 |  | inconclusive: 7.31 µM [falling, partial curve]
13 | COc1ccc(C(=O)NC(=S)N2C[C@H]3C[C@H](C2)c2cccc(=O)n2C3)cc1 | inconclusive: 28.9% | 
14 | COCCOC(=O)C1=C(N)Oc2c(c(=O)oc3ccccc23)[C@@]12C(=O)Nc1ccccc12 |  | inconclusive: 14.6 µM [falling, partial curve]
15 | C/C(=N\NC(=O)c1ccccc1O)c1c(O)n(C2CCCCC2)c(=O)[nH]c1=O |  | inconclusive: 25.1 µM [falling, partial curve]
16 | COc1ccc(-n2c(O)c(C(C)=NCc3ccc4c(c3)OCO4)c(=O)[nH]c2=O)cc1 | inconclusive: 8.5% | 
17 | C=CCn1c(O)c(C(C)=NCCc2c[nH]c3ccccc23)c(=O)[nH]c1=O | inconclusive: 5.46% | 
18 | O=c1[nH]c(O)c(C=Nc2ccc(Cl)cc2Cl)c(=O)[nH]1 | inconclusive: 5.83% | 
19 | COC(=O)C1=C(c2ccc(F)cc2OCc2ccccc2)C[C@@H]2CC[C@H]1N2C(=O)NCc1ccc(OC)c(OC)c1 | inconclusive: -3.84% | 
20 | COC(=O)C1=C(c2cccc(OCc3ccccc3)c2)C[C@@H]2CC[C@H]1N2C(=O)NCc1ccc2[nH]ccc2c1 | inconclusive: -13% | 
21 | CC(N)Cc1cn(Cc2ccccc2)c2ccccc12 (stereo unspecified) |  | inconclusive: 20 µM [falling, partial curve, poor fit]
22 | CNCCCc1ccccc1 | inactive | 
23 | COP(=O)(OC)/C(C=O)=N/Nc1ccc([N+](=O)[O-])cc1 | inactive | 
24 | O=C(O)c1cccc2c1NC(c1cccc([N+](=O)[O-])c1)C1CC(Sc3ccccc3[N+](=O)[O-])C(Cl)C21 (stereo unspecified) | inconclusive: 2.62% | 
25 | CCc1ccc2c(CN3CC=C(c4ccccc4)CC3)cc(=O)oc2c1 | inconclusive: 0.769% | 

Row | Structure (SMILES) | activity change, negative = inhibition | Potency
26 | O=C(O)c1nonc1-c1nonc1C(=O)O | inconclusive: 8.16% | 
27 | Cc1cccc2sc(NC(=O)c3cccn(Cc4ccccc4)c3=O)nc12 | inconclusive: -8.34% | 
28 | O=C(Cn1ncc2c3ccccc3n(Cc3ccc(F)cc3)c2c1=O)N1CCC2(CC1)OCCO2 |  | inconclusive: 9.2 µM [rising, partial curve]
29 | Cc1ncoc1C(=O)NCCC(c1ccccc1)c1ccccc1 | inconclusive: 1.56% | 
30 | CC1(C)C(C(=O)N2CCN(c3ccc(Cl)cc3)CC2)C1(C)C | inconclusive: 3.8% | 
31 | CCC(=Nc1ccc(OC)cc1OC)c1c(O)[nH]c(=O)[nH]c1=O |  | inconclusive: 5.01 µM [cytotoxic, full curve]
32 | CC(=O)Nc1cccc(NC(=O)CSc2nc(C3CC3)nc3ccccc23)c1 |  | inconclusive: 15.8 µM [falling, partial curve]
33 | Clc1cccc(CNCCc2ccc3c(c2)OCO3)c1 | inactive | 
34 | COc1cc2c3cc1Oc1cc(ccc1O)C[C@@H]1c4c(cc(OC)c(O)c4Oc4ccc(cc4)C[C@H]3N(C)CC2)CCN1C |  | inconclusive: 17.8 µM [falling, partial curve, poor fit]
35 | NNC(=O)c1ccc(Cl)cc1 |  | inconclusive: 17.8 µM [falling, partial curve, poor fit]
36 | Fc1ccccc1CCNCc1cccc2ccccc12 | inconclusive: 9.79% | 
37 | C#C[C@@]1(O)CCC2C3CCC4=C/C(=N/OCC(=O)NC(C(=O)O)C(C)O)CC[C@]4(C)C3CC[C@@]21C (stereo partly specified) | inconclusive: 1.09% | 
38 | O=C(CNC(=O)OCc1ccccc1)NCC(=O)Nc1ccc(Br)cc1C(=O)c1ccccc1 | inactive | 
39 | COc1ccc(-c2cc(=Nc3ccccc3)c3cc(C)ccc3o2)cc1 | inconclusive: 8.04% | 
40 | O=c1[nH]c(=S)n(Cc2ccc(F)cc2)c(O)c1C=NCc1cccnc1 | inconclusive: -10.2% | 
41 | N#CC1=C(SCC(=O)c2ccc(Cl)cc2)NC2=C(C(=O)CCC2)C1c1ccco1 (stereo unspecified) |  | inconclusive: 22.4 µM [falling, partial curve, poor fit]
42 | CCN1CCN(c2cc(=O)n3ccccc3n2)CC1 | inconclusive: 10.3% | 
43 | O=C(NNc1ccccn1)c1ccccc1CC[N+](=O)[O-] | inconclusive: 11.8% | 
44 | Cc1cc(NC(=O)c2cccn(Cc3ccccc3)c2=O)no1 | inconclusive: 2.61% | 
45 | CCCc1[nH]nc2c1C1(C(=O)N(Cc3ccccc3)c3ccccc31)C(C(=O)OC)=C(N)O2 (stereo unspecified) | inconclusive: -9.56% | 
46 | Cc1ccc2c(c1)[C@@H]1CN(C)CC[C@@H]1N2C(=O)Nc1cccc(C(F)(F)F)c1 | inconclusive: -25.3% | 
47 | CC(=O)C1C2c3ccccc3O[C@@]1(C)N=c1s/c(=C/c3ccoc3)c(=O)n12 (stereo partly specified) | inconclusive: -0.177% | 
48 | OC(Cn1c2ccccc2c2ccccc21)C[n+]1cccc2ccccc21 (stereo unspecified) |  | inconclusive: 20 µM [falling, partial curve, poor fit]
49 | CC1=[N+]([O-])C2(N)CCc3nonc3C2(O)C1 (stereo unspecified) | inactive | 
50 | COc1ccc(C[C@H]2CN3C(=NC[C@@H]3C(C)C)N2CCNC(=O)c2ccc(C)c(Br)c2)cc1 | inconclusive: -14.4% | 

Row | Structure (SMILES) | activity change, negative = inhibition | Potency
51 | CN1CC(C(=O)c2ccc([N+](=O)[O-])cc2)C(c2ccc(Cl)cc2)C1 (stereo unspecified) | inconclusive: 6.74% | 
52 | Clc1ccc(CNC2CN3CCC2CC3)cc1 (stereo unspecified) | inactive | 
53 | COC(=O)c1ccc(CC(C(=O)c2ccccc2)N(C)C)cc1 (stereo unspecified) | inconclusive: 3.63% | 
54 | CCN1C(=O)C(=C2C=C(C)N(Cc3ccco3)C(C)=C2)C(=O)N(CC)C1=S | inactive | 
55 | COc1ccccc1C1c2[nH]c3ccccc3c2C[C@H]2C(=O)N(C3CCN(Cc4ccccc4)CC3)CC(=O)N12 (stereo partly specified) |  | inconclusive: 20 µM [falling, single point]
56 | O=[N+]([O-])c1cnc2ccc3ccccc3c2c1 | inconclusive: 2.2% | 
57 | COc1cc(NC(=O)c2cc([N+](=O)[O-])ccc2NC(=O)CNC2CCCCC2)cc(OC)c1 | inconclusive: 3.17% | 
58 | CC(C)(C)n1cccc1/C=C1\C(=O)NC(=O)N(c2ccccc2)C1=O | inconclusive: 6.37% | 
59 | CC(=NCCCN1CCOCC1)c1c(O)n(-c2ccccc2C)c(=O)[nH]c1=O | inconclusive: 4.34% | 
60 | C[C@H]1CCC/C=C/[C@@H]2C[C@H](O)C[C@H]2[C@H](O)/C=C/C(=O)O1 | inconclusive: -25.1% | inconclusive: 11.6 µM [falling, partial curve]
61 | CC(C)C12CN3CCN(CC(C3)/C1=N\O)C2 | inconclusive: 8.39% | 
62 | CC1(C)C[C@H]2C=C(C=O)[C@]3(C=O)C[C@]3(C)[C@H]2C1 | inconclusive: 10.8% | 
63 | Cn1c(O)c(C(=O)c2ccccc2F)c(=O)n(C)c1=O | inactive | 
64 | O=c1[nH]c(=O)n(C2CCCCC2)c(O)c1C1NCCc2ccccc21 (stereo unspecified) |  | inconclusive: 11.6 µM [rising, partial curve, poor fit]
65 | CCOc1cc(C2C(C#N)=C(N)Oc3c2c(=O)oc2ccccc32)ccc1OC(=O)c1cccs1 (stereo unspecified) |  | inconclusive: 23.1 µM [falling, single point]
66 | Cc1ccc(S(=O)(=O)c2nc(-c3ccccc3Cl)oc2N(C)C2CCN(C)CC2)cc1 |  | inconclusive: 18.4 µM [falling, single point]
67 | O=C1c2ccccc2C(=O)N1Cc1nc2ccccc2c(=O)n1-c1ccc(Br)cn1 | inactive | 
68 | COCCO[C@H]1CCC2C3CC=C4C[C@@H](O)CC[C@]4(C)C3CC[C@@]21C (stereo partly specified) | inconclusive: 1.19% | 
69 | Cc1c(CC(=O)N2C[C@H]3C[C@@H](C2)c2cccc(=O)n2C3)c(=O)oc2cc(O)c(Cl)cc12 | inactive | 
70 | CC/C(=N\Nc1ccccc1)c1c(O)n(C)c(=O)n(C)c1=O | inconclusive: -5.62% | 
71 | CC(C)CCCn1c(O)c(/C=C2/C=CC=N2)c(=O)[nH]c1=O | inconclusive: -11% | 
72 | Cc1ccc(N2C(=O)NC(=O)/C(=C\C=C\c3ccco3)C2=O)cc1C |  | inconclusive: 25.9 µM [falling, single point]
73 | O=C1NC(=S)NC(=O)C1=Cc1cccc2cc3ccccc3cc12 |  | inconclusive: 3.55 µM [falling, single point]
74 | CC(C)=CCC12CN3CCN(CC(C3)C1=O)C2 | inconclusive: 9.07% | 
75 | C[N+]1(C)CCOC(O)(c2ccc(-c3ccc(C4(O)C[N+](C)(C)CCO4)cc3)cc2)C1 (stereo unspecified) |  | inconclusive: 10 µM [falling, single point]

Four compounds drawn at random from those above:
Row | Structure (SMILES) | activity change, negative = inhibition | Potency
58 | CC(C)(C)n1cccc1/C=C1\C(=O)NC(=O)N(c2ccccc2)C1=O | inconclusive: 6.37% | 
60 | C[C@H]1CCC/C=C/[C@@H]2C[C@H](O)C[C@H]2[C@H](O)/C=C/C(=O)O1 | inconclusive: -25.1% | inconclusive: 11.6 µM [falling, partial curve]
62 | CC1(C)C[C@H]2C=C(C=O)[C@]3(C=O)C[C@]3(C)[C@H]2C1 | inconclusive: 10.8% | 
59 | CC(=NCCCN1CCOCC1)c1c(O)n(-c2ccccc2C)c(=O)[nH]c1=O | inconclusive: 4.34% | 
